Results are given in words; binding and its absence hold for the method and conditions named. Binding seen in cells or lysates may run through a third protein. Some entries that bind do so weakly or less than the wild type. Where a sequence is shown, tags or fusion partners need not be part of it.
Molecular target: T1, (FLAG)3-Nanog (UniProt Q80Z64)
T1 sequence: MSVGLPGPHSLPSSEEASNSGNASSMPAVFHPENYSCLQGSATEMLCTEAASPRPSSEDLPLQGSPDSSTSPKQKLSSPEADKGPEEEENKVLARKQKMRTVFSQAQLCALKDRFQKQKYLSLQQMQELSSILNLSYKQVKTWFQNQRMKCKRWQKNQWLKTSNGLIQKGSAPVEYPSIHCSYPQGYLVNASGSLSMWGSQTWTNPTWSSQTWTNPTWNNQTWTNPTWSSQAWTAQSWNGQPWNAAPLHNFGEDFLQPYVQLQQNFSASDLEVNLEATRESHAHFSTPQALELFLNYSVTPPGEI
Experiment: co-IP

Protein sequences, listed by entry. Tags and fused reporters are not part of them.
UniProt P48432: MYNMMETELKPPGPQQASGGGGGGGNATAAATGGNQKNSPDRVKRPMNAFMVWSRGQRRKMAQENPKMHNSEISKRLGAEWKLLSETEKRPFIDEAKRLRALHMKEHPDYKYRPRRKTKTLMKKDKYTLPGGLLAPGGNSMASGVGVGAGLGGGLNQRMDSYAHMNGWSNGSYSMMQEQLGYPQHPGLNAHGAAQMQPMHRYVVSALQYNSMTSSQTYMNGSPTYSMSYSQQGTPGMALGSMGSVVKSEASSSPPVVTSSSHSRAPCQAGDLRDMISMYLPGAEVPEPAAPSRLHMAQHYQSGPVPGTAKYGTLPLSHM

## GFP-Sox2 (from UniProt P48432 1-319)
  binding: binds

## mCherry-Sox2 (from UniProt P48432 1-319)
  binding: binds
